Reference: patent US9540336B2, “Therapeutic agents” (priority 2011, dated 2017)

Tested on: M. smegmatis membranes
Assay: Binding of CFZ to isolated M. smegmatis membranes

Compound: CC(C)N=c1cc2n(-c3ccc(Cl)cc3)c3ccccc3nc-2cc1Nc1ccc(Cl)cc1 [CFZ, 3-(4-chloroanilino)-10-(4-chlorophenyl)-2,10-dihydro-2-(isopropylimino)-phenazine]
- CFZ remaining in solution associated with membrane after centrifugation (60 μg membranes/0.5 mL, 0.1 M HEPES pH 7.0): about 50 μM
- CFZ associated with membrane per lipid (assuming equal lipid/protein weight, 600 Da lipid): 0.5-1.0 mole of CFZ per mole of lipid
- proportion of membrane-associated CFZ that is cationic (end of experiment, pH 7.0): approximately 80%
